# From the RNAGym collection of RNA variant scans (doi:10.1126/science.aae0568)
# This sample is rich in variants without activity.
# B1: tRNA (parent)
# chain: GUUCCGUUGGCGUAAUGGUAACGCGUCUCCCUCCUAAGGAGAAGACUGCGGGUUCGAGUCCCGUACGGAACG
# Variants of: B1
# Experiment: yeast fitness relative to wild type (ratio to wild type); higher = fitter; tRNA-Arg(CCU), competitive growth, 37 C, YPD
# Procedure, shortened: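 For this measurement, the tRNA-Arg(CCU) gene was varied by chemical synthesis at a 3% per-site mutation rate across 69 sites, and each variant was placed at the native genomic locus in Saccharomyces cerevisiae. The pooled strains went through a 24-hour competition in YPD at 37°C in six parallel replicates, with amplicons from start and end populations read by 100-nucleotide paired-end sequencing. Darwinian fitness relative to wild type followed from the change in each genotype's frequency. Genotypes needed ≥ 100 starting reads, and estimates < 0.5 were set to 0.5.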
row,Variant,yeast fitness
1,A42U C49A G56C G67U,≤ 0.5
2,A42U C55A G67A,≤ 0.5
3,A42U C62A G67C,≤ 0.5
4,A42U G50A C62U A70G,≤ 0.5
5,A43C A45U C46A C49A,≤ 0.5
6,A43C A45U C49G C61U,≤ 0.5
7,A43C A57U G68C,≤ 0.5
8,A43C C49G A57G A69C,≤ 0.5
9,A43C C49G C61A,0.702
10,A43C C49U G63U,≤ 0.5
11,A43C C62G G63A C66G A69G,≤ 0.5
12,A43C G50C C55G,≤ 0.5
13,A43C G68C,0.72
14,A43G A45G C55U G68A,≤ 0.5
15,A43G C49U G52A C55G C66G A70C,≤ 0.5
16,A43G G56C C60U,≤ 0.5
17,A43G U54C,0.905
18,A43U A45G C55G,≤ 0.5
19,A43U A65G C66U,0.794
20,A43U A70U,1.06
21,A43U C49G A57G,≤ 0.5
22,A43U C49G C61U,≤ 0.5

row,Variant,yeast fitness
1,A43U C61A,0.764
2,A43U G51A G52C C60A,≤ 0.5
3,A43U G56C C61A,≤ 0.5
4,G44A C49A U59A C66U,≤ 0.5
5,G44A C55G,0.558
6,G44U C46G A65G,≤ 0.5
7,A45C C49A A57U,≤ 0.5
8,A45C C55U A57C,≤ 0.5
9,A45C G48A G51C,≤ 0.5
10,A45C G51C U53C,≤ 0.5
11,A45C G51C U64C A69U,≤ 0.5
12,A45C G52A U53C G58A C62G,≤ 0.5
13,A45C U47A C66U,0.595
14,A45G A65G,1.04
15,A45G C46G U47A C62G A65C,≤ 0.5
16,A45G G51A,0.716
17,A45U A57U U59G U64G,≤ 0.5
18,A45U C46G A69C,≤ 0.5
19,A45U C55G,0.528
20,A45U C60G C66G,≤ 0.5
21,A45U G48C,0.857
22,A45U U53G C60G C61A C66U,≤ 0.5

row,Variant,yeast fitness
1,C46A G48C,0.924
2,C46A G58C C62A A70C,≤ 0.5
3,C46G C62A A69C,≤ 0.5
4,C46G G48A G68A,≤ 0.5
5,C46U C61A G67A,0.568
6,C46U U59C,1.03
7,C46U U59G,0.962
8,U47A G56A U59C C61G,≤ 0.5
9,U47A U53C,0.7
10,U47C A65U C66A A69C,≤ 0.5
11,U47C G50A G68C,0.539
12,U47G G51C,≤ 0.5
13,U47G G56A A65G C66U,≤ 0.5
14,G48A A57C A70U,≤ 0.5
15,G48A C62U,1.01
16,G48C C49U C55U,0.663
17,G48C G50U G67C A70U,≤ 0.5
18,G48C G56A C61A,≤ 0.5
19,G48C U53C,0.694
20,C49A A65C,0.686
21,C49G A57C G58C U64A,≤ 0.5
22,C49G C60A A70U,≤ 0.5

row,Variant,yeast fitness
1,C49G G50C C62U,0.539
2,C49G U59G,0.635
3,C49U C55G G63A C66U,≤ 0.5
4,C49U C60A C62U,≤ 0.5
5,C49U G51A C55G G63C,≤ 0.5
6,C49U G58C C62G A69C,0.559
7,G50A U54G,0.559
8,G50C G51A G63C,≤ 0.5
9,G50C U53A A57U A65U A70U,≤ 0.5
10,G51A A57U G63A A65U A70U,≤ 0.5
11,G51A C60G A65U,≤ 0.5
12,G51A G56A G63C,≤ 0.5
13,G51A U53C C62U,≤ 0.5
14,G51C C55A C60A,≤ 0.5
15,G52A A57G C60U,≤ 0.5
16,G52A C60A C66G,≤ 0.5
17,G52C A57C,0.526
18,G52C C60G,≤ 0.5
19,G52C C62U,0.559
20,G52C C66U A70C,≤ 0.5
21,G52C G56C,≤ 0.5
22,U53A A70C,0.769

row,Variant,yeast fitness
1,U53A G63C G67A,≤ 0.5
2,U53C G58C,0.977
3,U54A A57C,0.555
4,U54A G63A G68C,≤ 0.5
5,U54C C55A C62G A69G,≤ 0.5
6,U54C C61A G68U,≤ 0.5
7,U54C G68A,0.937
8,U54G C61A A69C,≤ 0.5
9,U54G G63U,≤ 0.5
10,U54G G67A,0.637
11,C55A A57C G67C G68A,≤ 0.5
12,C55A C61A,0.579
13,C55G A57G G63C,≤ 0.5
14,C55G G63U A69C,≤ 0.5
15,G56A A65G C66U A69U,0.573
16,G56A C60G,0.681
17,G56A C60G C61U,≤ 0.5
18,G56A G58C U64A A69C,≤ 0.5
19,G56U U59A C66A,≤ 0.5
20,A57C A65U,0.606
21,A57C A69C,0.608
22,A57C C66G,≤ 0.5

row,Variant,yeast fitness
1,A57G A65G C66U,0.65
2,A57U A65U G67A G68C,≤ 0.5
3,A57U C60A G68C,≤ 0.5
4,G58A G67C,0.988
5,G58U C66A A70C,0.665
6,U59A C66G,0.669
7,U59C C61A C62U,≤ 0.5
8,C60A A65U A70G,≤ 0.5
9,C60A A69U,0.746
10,C60U A65C C66G,≤ 0.5
11,C60U G67A A69U,≤ 0.5
12,C61A A65U,0.604
13,C61A C66G,0.572
14,C61U C66G,0.706
15,C62U G63A U64A,≤ 0.5
16,C62U U64A G67C,≤ 0.5
17,U64A C66U A70G,≤ 0.5
18,A65C A69C A70G,0.554
19,A65C A70C,1.03
20,A65U A70G,1.05
21,C66A A69G A70C,≤ 0.5
22,A69G,0.982
